Measurements reported in PubChem BioAssay AID504793 (Drosophila RNAi Screening Center, 2011).

Test: 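Whole-genome screen for parts of the DNA damage checkpoint at G2/M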 (primary screen)
System: Drosophila S2R+ cells
Reagents: long dsRNA against Drosophila genes, about 0.25 µg dsRNA per well
Timing: 4 days of dsRNA, then 4 hours of drug before read-out
Challenge: doxorubicin 0.5 µM for 4 hours to cause double-strand breaks, in cells also given a low, harmless dose of dsRNA against nbs to sensitise the assay
Read-out: 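Mitotic index as the number of phospho-histone H3-positive cells in each well following doxorubicin, given as raw counts without normalisation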
Direction: mitotic cells: higher = more cells in mitosis, weaker G2 arrest
Hit rule: 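Genes are called active only when high mitotic counts were reproduced with independent dsRNAs and mitosis was checked for delay without damage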
Meaning of the calls: active = confirmed in follow-up tests; inactive = not confirmed
In all, the deposit lists about 23,000 reagents; below is a random part of those that have a named target and a result. Of all reagents, 62 (0.27%) are marked active. 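Calls come from follow-up tests whose scores are not deposited, so confirmed genes may have low counts here; counts are not normalised per plate.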 Raw values are not corrected between plates. Unmarked entries are inactive.

pim (pimples) [DRSC03591]: mitotic cells, replicate 1 = 13
gzl (godzilla E3 ubiquitin protein ligase) [DRSC12517]: mitotic cells, replicate 1 = 11
gzl (godzilla E3 ubiquitin protein ligase) [DRSC27120]: mitotic cells, replicate 1 = 7
mRpL37 (mitochondrial ribosomal protein L37) [DRSC16062]: mitotic cells, replicate 1 = 8
Obp85a (Odorant-binding protein 85a) [DRSC14362]: mitotic cells, replicate 1 = 7
CG9312 [DRSC16471]: mitotic cells, replicate 1 = 6
CG12868 [DRSC06207]: mitotic cells, replicate 1 = 1
CG12868 [DRSC26377]: mitotic cells, replicate 1 = 4
Jhbp16 (Juvenile hormone binding protein 16) [DRSC15039]: mitotic cells, replicate 1 = 16
CG14676 [DRSC12262]: mitotic cells, replicate 1 = 1
CG12517 [DRSC02173]: mitotic cells, replicate 1 = 6
CG15337 [DRSC18020]: mitotic cells, replicate 1 = 10
CG15337 [DRSC22778]: mitotic cells, replicate 1 = 11
CG11828 [DRSC14394]: mitotic cells, replicate 1 = 6
CG11828 [DRSC22580]: mitotic cells, replicate 1 = 5
CG11828 [DRSC29853]: mitotic cells, replicate 1 = 13

Targets listed so far whose gene name starts with G or g:
gzl (godzilla E3 ubiquitin protein ligase) [DRSC12517]: mitotic cells, replicate 1 = 11
gzl (godzilla E3 ubiquitin protein ligase) [DRSC27120]: mitotic cells, replicate 1 = 7

More results follow.
CG34435 [DRSC18086]: mitotic cells, replicate 1 = 8
rec (recombination-defective) [DRSC14998]: mitotic cells, replicate 1 = 7
rec (recombination-defective) [DRSC15656]: mitotic cells, replicate 1 = 7
Mnt [DRSC17894]: mitotic cells, replicate 1 = 7
Mnt [DRSC18480]: mitotic cells, replicate 1 = 9
foi (fear-of-intimacy) [DRSC10719]: mitotic cells, replicate 1 = 9
foi (fear-of-intimacy) [DRSC29596]: mitotic cells, replicate 1 = 2
lambdaTry [DRSC06137]: mitotic cells, replicate 1 = 7
Ufc1 (Ubiquitin-fold modifier conjugating enzyme 1) [DRSC07156]: mitotic cells, replicate 1 = 10
CarT (Carcinine transporter) [DRSC03196]: mitotic cells, replicate 1 = 4
CarT (Carcinine transporter) [DRSC27070]: mitotic cells, replicate 1 = 2
CG33282 [DRSC00422]: mitotic cells, replicate 1 = 4
CG10939 [DRSC06019]: mitotic cells, replicate 1 = 2
CG10939 [DRSC21734]: mitotic cells, replicate 1 = 4
RpS25 (Ribosomal protein S25) [DRSC16837]: mitotic cells, replicate 1 = 4
RpS25 (Ribosomal protein S25) [DRSC29990]: mitotic cells, replicate 1 = 7
CG12159 [DRSC06114]: mitotic cells, replicate 1 = 3
caly (calypso) [DRSC07182]: mitotic cells, replicate 1 = 8
